For 77 compounds, cell viability results are on record in the supplement of paper PMC3682954.

Where “and” joins values, the source holds several entries; their conditions need not be identical. Equal entries are not always repeated. Structures can show the parent of a compound that is named as a salt. ± gives the standard deviation of the averaged measurements. The list shows a part of the results. Many values rest on one well or one pass, so single values are uncertain.

The test system of the assay is RAW 264.7. As to the kind of experiment: cell viability (MTT) relative to vehicle control; higher = more viable cells. The following applies: stimulus: HMGB1 5 ug/ml, 18 h.
The mark [1] stands for this setting: compound concentration: 1 ug/ml.

Consider `Cc1c(N)nc([C@H](CC(N)=O)NC[C@H](N)C(N)=O)nc1C(=O)N[C@H](C(=O)N[C@H](C)[C@@H](O)[C@H](C)C(=O)N[C@H](C(=O)NCCc1nc(-c2nc(C(=O)NCCC[S+](C)C)cs2)cs1)[C@@H](C)O)[C@@H](OC1OC(CO)C(O)C(O)C1OC1OC(CO)C(O)C(OC(N)=O)C1O)c1cnc[nH]1` (some centres not stated) [Bleomycin], for which the cell viability (compound concentration: 3 uM) came out at 98.2%.
Turning to `C[C@]12CC[C@H](O)C[C@H]1CC[C@@H]1[C@@H]2C[C@@H](O)[C@]2(C)[C@@H](C3=CC(=O)OC3)CC[C@]12O` [Digoxigenin], the cell viability is, setting by setting: under setting [1], 98.6%; (compound concentration: 3 uM) 109%.
Regarding `NCCc1c[nH]c2ccccc12` [Tryptamine hydrochloride], the cell viability (compound concentration: 3 uM) came out at 104%.
Same read-out and setting: then `Clc1ccc(N2C[C@H]3CC[C@@H](C2)N3)nn1`, with 99%; and `CC(=O)NC1CCSC1=O` (racemic) [N-Acetyl-DL-homocysteine Thiolactone], with 107%.
In the case of `CC(Cc1ccccc1)NCCC(c1ccccc1)c1ccccc1` (configuration not stated) [Prenylamine lactate], the cell viability (compound concentration: 3 uM) came out at 87.1%.
Turning to `O=c1cccc2n1CC1CC2CN(CCO)C1` (configuration not stated), the cell viability under setting [1] is 96.2% and 96.3%.
With `Cc1cccc(C)c1NC1=NCCCS1`, the cell viability (compound concentration: 3 uM) is 106%.
As for `Cc1cccc(C)c1NC1=NCCCS1` [Xylazine], the cell viability (compound concentration: 3 uM) turned out to be 105 ± 3.9%.
Still for that read-out and setting: then `Cc1cccc(C)c1NC1=NCCCS1` [Xylazine hydrochloride], with 109%; and `COc1cc2c(cc1OC)C1CC(=O)C(CC(C)C)CN1CC2` (configuration not stated) [Tetrabenazine], with 115%.
The same measure, in the same setting: for `CCCCC/C=C\C/C=C\C/C=C\C/C=C\CCCC(=O)Nc1ccc(O)cc1` the value was 92%.
The same measure, in the same setting: then `CCNC(=O)[C@H]1O[C@@H](n2cnc3c(N)ncnc32)[C@H](O)[C@@H]1O` [5'-N-Ethylcarboxamidoadenosine], with 94.6%.
`CC1(C)S[C@@H]2[C@H](N)C(=O)N2[C@H]1C(=O)O` [(+)-6-Aminopenicillanic acid]: the cell viability under setting [1] amounted to 106%.
Turning to `CC(=O)OCC1=C(C(=O)O)N2C(=O)[C@@H](NC(=O)CCC[C@@H](N)C(=O)O)[C@H]2SC1`, the cell viability (compound concentration: 3 uM) was 99.2%.
On the same count and under the same terms, for `O=C1CN=C(c2ccccc2)c2cc([N+](=O)[O-])ccc2N1` [Nitrazepam] the value was 93.2%.
Still for that read-out and setting: then `Cc1ccc(S(=O)(=O)N[C@@H](CCCCN)C(=O)CCl)cc1` [Na-p-Tosyl-L-lysine chloromethyl ketone hydrochloride], with 107%; and `CCCN1CCC[C@@H](c2cccc(O)c2)C1` [S(-)-3PPP hydrochloride], with 103%.
Same read-out and setting: for `CN1C(=O)COc2c(C(=O)NC3CN4CCC3CC4)cc(Cl)cc21` (configuration not stated) [Azasetron] the value was 98.2%; for `Cc1ccc(O)cc1.Cc1cccc(O)c1.Cc1ccccc1O`, 98.2%.
Turning to `CCNC1(c2cccs2)CCCCC1=O` (configuration not stated) [Tiletamine hydrochloride], the cell viability (compound concentration: 3 uM) came out at 77.7%.
On the same count and under the same terms, then `C[C@@H]1CC[C@H]2[C@@H](C)C(=O)O[C@@H]3O[C@@]4(C)CC[C@@H]1[C@]32OO4`, with 101%.
As for `C[C@@H]1CC[C@H]2[C@@H](C)C(=O)O[C@@H]3O[C@@]4(C)CC[C@@H]1[C@]32OO4` [Artemisinin], the cell viability was found to be 83.1% under setting [1] and 96.3 ± 8.8% (compound concentration: 3 uM).
`CC[C@H]1[C@@H]2C[C@H]3[C@@H]4N(C)c5ccccc5[C@]45C[C@@H]([C@@H]2[C@H]5O)N3[C@@H]1O`: the cell viability (compound concentration: 3 uM) was 107%.
For `CS(=N)(=O)CC[C@H](N)C(=O)O` (stereo partly drawn) [L-Methionine sulfoximine], the cell viability (compound concentration: 3 uM) turned out to be 102%.
On the same count and under the same terms, for `CCC1(c2cccc(O)c2)CCCCN(C)C1` (configuration not stated) [Meptazinol hydrochloride] the value was 79.2%.
`CNC(C)C(O)c1ccccc1` (configuration not stated): where the note is “compound concentration: 3 uM”, the cell viability turned out to be 99.9%.
On the same count and under the same terms, then `CC(C)(C)C(=O)C(Oc1ccc(Cl)cc1)n1cncn1` (configuration not stated), with 101%.
In the case of `CC[C@H]1CN2CCc3cc(OC)c(OC)cc3[C@@H]2C[C@@H]1C[C@H]1NCCc2cc(OC)c(OC)cc21` [(+)-Emetine dihydrochloride hydrate], the cell viability under setting [1] came to 14.8%.
Take `CC[C@H]1CN2CCc3cc(OC)c(OC)cc3[C@@H]2C[C@@H]1C[C@H]1NCCc2cc(OC)c(OC)cc21` [Emetine dihydrochloride hydrate]: under “compound concentration: 3 uM”, the cell viability worked out at 1.64%.
The same measure, in the same setting: for `CC[C@H]1CN2CCc3cc(OC)c(OC)cc3[C@@H]2C[C@@H]1C[C@H]1NCCc2cc(OC)c(OC)cc21` the value was 9.18 ± 2.4%.
As for `COc1cc([C@@H]2c3cc4c(cc3[C@H](O)[C@H]3COC(=O)[C@H]23)OCO4)cc(OC)c1OC` [Podophyllotoxin], the cell viability is 78.1% under setting [1] and 92.9 ± 16% (compound concentration: 3 uM).
As to `COc1cc([C@@H]2c3cc4c(cc3[C@H](O)[C@H]3COC(=O)[C@H]23)OCO4)cc(OC)c1OC`, the cell viability (compound concentration: 3 uM) was 84.5%.
On the same count and under the same terms, for `CCN(C(C)=O)c1cccc(-c2ccnc3c(C#N)cnn23)c1` [Zaleplon] the value was 106 ± 8%.
With `NCCc1c[nH]c2ccc(O)cc12` [Serotonin hydrochloride], the cell viability reads like this: under setting [1], 84.5%; (compound concentration: 3 uM) 102 ± 6%.
Turning to `C[C@]12CC[C@H](O)CC1=CC[C@@H]1[C@@H]2CC[C@@]2(C)[C@H]1CC[C@]2(C)O`, the cell viability (compound concentration: 3 uM) came out at 94.8%.
Take `O=c1cccc2n1CC1CC2CN2CCCCC12` (configuration not stated) [Thermopsine]: the cell viability under setting [1] is 97.8%.
For `CN1[C@@H](C[C@@H](O)c2ccccc2)CCC[C@H]1C[C@H](O)c1ccccc1` [Lobelanidine hydrochloride], the cell viability (compound concentration: 3 uM) amounted to 113%.
`COc1ccc(C[C@H]2NC[C@H](O)[C@H]2OC(C)=O)cc1` [Anisomycin]: under setting [1], the cell viability came to 5.34%.
`CCCN(CCC)CCc1ccc(O)c(O)c1` [Dipropyldopamine hydrobromide]: the cell viability (compound concentration: 3 uM) is 94.1%.
The same measure, in the same setting: then `Ic1ccccc1CNC1C2CCN(CC2)C1C(c1ccccc1)c1ccccc1` [L-703,606 oxalate salt hydrate], with 87.9%.
For the compound `COc1ccc2c(c1)[nH]c1c(C)nccc12` [Harmine], the cell viability under setting [1] was determined as 100% and the cell viability (compound concentration: 3 uM) amounted to 100%.
Consider `COc1ccc2c(c1)[nH]c1c(C)nccc12` [Harmine hydrochloride], for which the cell viability (compound concentration: 3 uM) was 120%.
Consider `OC[C@@H](O)[C@H]1O[C@@H]2O[C@H](C(Cl)(Cl)Cl)O[C@@H]2[C@H]1O`, for which the cell viability (compound concentration: 3 uM) worked out at 112%.
The same measure, in the same setting: for `C[N+]12CCC(CC1)C(OC(=O)C(O)(c1ccccc1)c1ccccc1)C2` (configuration not stated) the value was 101%.
For the compound `C[N+]12CCC(CC1)C(OC(=O)C(O)(c1ccccc1)c1ccccc1)C2` (configuration not stated) [Clidinium bromide], the cell viability (compound concentration: 3 uM) was 71.5%.
Still for that read-out and setting: for `CN1C(=O)CN=C(c2ccccc2)c2cc([N+](=O)[O-])ccc21` [Nimetazepam] the value was 94.5%; for `CCCN1CCc2cc(O)cc3c2[C@H]1Cc1ccc(O)c(O)c1-3` [R(-)-2,10,11-Trihydroxy-N-propylnoraporphine hydrobromide], 96.1%; for `CC(CC(C(N)=O)(c1ccccc1)c1ccccc1)N(C)C` (configuration not stated), 109%.
Consider `C[C@@]12N[C@@H](Cc3ccccc31)c1ccccc12` [(-)-MK-801 hydrogen maleate], for which, for the setting “compound concentration: 3 uM”, the cell viability came out at 119%.
Still for that read-out and setting: for `C[C@@]12N[C@@H](Cc3ccccc31)c1ccccc12` [(-)-MK 801 hydrogen maleate] the value was 99%.
As for `C[C@]12CC[C@H]3[C@@H](CCC4=CC(=O)CC[C@@]43C)[C@@H]1CC[C@H]2O` [Epitestosterone], the cell viability under setting [1] was found to be 103%.
For `CCCN(CCC)[C@@H]1CCc2cccc(O)c2C1` [R-(+)-8-Hydroxy-DPAT hydrobromide], the cell viability (compound concentration: 3 uM) amounted to 103%.
Still for that read-out and setting: for `C#CCN[C@H](C)Cc1ccccc1` [R-(-)-Desmethyldeprenyl hydrochloride] the value was 95.6%.
As to `C[C@H]1C(=O)O[C@@H]2CCN3CC=C(COC(=O)[C@](C)(O)[C@]1(C)O)[C@H]23` [Monocrotaline], the cell viability under setting [1] amounted to 96.1%.
Turning to `COC(=O)C(c1ccccc1)C1CCCCN1` (configuration not stated), the cell viability (compound concentration: 3 uM) was found to be 97.8%.
Still for that read-out and setting: for `C=C(C)[C@@H]1[C@H]2OC(=O)[C@@H]1[C@]1(O)C[C@H]3OC34C(=O)O[C@H]2[C@@]41C.CC(C)(O)[C@@H]1[C@H]2OC(=O)[C@@H]1[C@]1(O)C[C@H]3OC34C(=O)O[C@H]2[C@@]41C` (some centres not stated) [Picrotoxin] the value was 101%; for `CC(=O)OCC1=C(C(=O)O)N2C(=O)[C@@H](N)[C@H]2SC1` [Cephalosporanic acid, 7-amino], 113%.
Regarding `C/C=C(/C)C(=O)O[C@H]1CC[C@@]2(C)[C@@H]3CC[C@H]4[C@]5(O)C[C@H](O)[C@@]6(O)[C@@H](CN7C[C@@H](C)CC[C@H]7[C@@]6(C)O)[C@]5(O)C[C@]42O[C@]13O`, the cell viability (compound concentration: 3 uM) came out at 95.7%.
For the compound `CO[C@]12C[C@@H](COC(=O)c3cncc(Br)c3)CN(C)[C@@H]1Cc1cn(C)c3cccc2c13` [Nicergoline,], the cell viability under setting [1] was determined as 99.9%.
As for `CO[C@]12C[C@@H](COC(=O)c3cncc(Br)c3)CN(C)[C@@H]1Cc1cn(C)c3cccc2c13`, the cell viability (compound concentration: 3 uM) is 109%.
The same measure, in the same setting: then `CO[C@]12C[C@@H](COC(=O)c3cncc(Br)c3)CN(C)[C@@H]1Cc1cn(C)c3cccc2c13` [Nicergoline], with 103 ± 2.5%; and `CN(C)C(=S)SSC(=S)N(C)C`, with 95.7%; and `CC(C)C[C@H](CN)CC(=O)O`, with 115%.
With `O=CN1CCCC[C@@H]1[C@@H]1CC[C@@H]2CCCCN2C1` [Leontiformine HBr], under setting [1], the cell viability was determined as 93.8%.
Take `CC1(C(=O)O)C2CCC(O2)C1(C)C(=O)O` (configuration not stated) [Cantharidic Acid]: the cell viability (compound concentration: 3 uM) turned out to be 37.1%.
Turning to `CC(C)(C)NCC(O)c1ccccc1Cl` (configuration not stated) [Tulobuterol hydrochloride], the cell viability (compound concentration: 3 uM) stood at 110%.
Same read-out and setting: for `CC(C)(C)NCC(O)c1ccccc1Cl` (configuration not stated) the value was 111%; for `CC(C)(C)NCC(O)c1ccccc1Cl` (configuration not stated) [Tulobuterol], 94.7 ± 4%; for `C[C@]12Cc3c[nH]nc3C[C@@H]1CC[C@@H]1[C@@H]2CC[C@@]2(C)[C@H]1CC[C@]2(C)O` [Stanozolol], 104 ± 18%.
The same measure, in the same setting: for `c1ccc(C2(c3ccccc3)CC2C2=NCCN2)cc1` (configuration not stated) [Cibenzoline succinate] the value was 95.9%.
Still for that read-out and setting: for `CCCN(CCC)C1CCc2ccc(O)cc2C1` (stereo not drawn) [R-(+)-7-Hydroxy-DPAT hydrobromide] the value was 101%.
In the case of `C/C=C1\C[C@@H](C)[C@](O)(CO)C(=O)OCC2=CCN3CC[C@@H](OC1=O)[C@@H]23` [Retrorsine], under setting [1], the cell viability was 94.2%.
Take `CCC(N)C(O)c1ccc(O)c(O)c1` (configuration not stated): the cell viability (compound concentration: 3 uM) worked out at 112%.
Regarding `CN1C[C@H](CO)C=C2c3cccc4[nH]cc(c34)C[C@H]21` [Lysergol], under setting [1], the cell viability was determined as 92.6%.
Take `CC(N)Cc1c[nH]c2ccc(O)cc12` (stereo not drawn) [alpha-Methyl-5-hydroxytryptamine maleate]: the cell viability (compound concentration: 3 uM) was found to be 113%.
Still for that read-out and setting: for `CN(N=O)c1cc(O)ccc1O` [Dephostatin] the value was 94.8%.

One may read the cell viability as a read-out of living cells in per cent, often relative to untreated cells.
